# Among all 320,000 compounds or so, about 2,100 (0.66%) were called active. Inconclusive results, whose numbers are uncertain, are shown with a selection of clear calls. The call rests on the fitted dose curve; in most records, active means well fitted inhibition curve with a large enough effect in the signal ratio, with a control signal flat (not every such curve was filed as active); inconclusive means small, poorly fitted or top-dose-only effect, or effect the other way, or a change in a side signal; inactive means flat fitted curve, though single readings scatter; the % refers to the signal ratio. Where the call is inconclusive, the potency comes from a doubtful curve fit.
# Assay: qHTS Assay for Lipid Storage Modulators in Drosophila S3 Cells
# Settings: BODIPY lipid droplet fluorescence, 18-24 h, cells fed with added oleic acid; lipid storage change, negative = inhibition: at 46.1 µM (top of the series) unless noted
# Outline: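 Drosophila S3 cells got compounds at several concentrations plus oleic acid (400 uM solution). Laser-scanning cytometry with 488 nm excitation read lipid droplets at 500-530 nm and cells at 575-640 nm. Percent activity was relative to 20 uM Triacsin C.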
# On the % scale 0 is the no-effect control and ±100 the full control effect; potency means the concentration at half of the fitted maximal effect.
Structure (SMILES),"lipid storage change, negative = inhibition",Potency
CS(=O)(=O)N(CC(=O)NCCSC1CCCCC1)c1cccc(F)c1,inconclusive: -13.9%,
Cc1ccc(S(=O)(=O)NCCCNC(=O)N2CCOCC2)cc1,inconclusive: -29%,
COc1cccc(N(C(=O)c2snc(C(N)=O)c2N)C(C(=O)NCC2CCCO2)c2ccc(C)o2)c1 (configuration not stated),,"inconclusive: 651 nM [activator, single point]"
COc1ccc(OC)c(NC(=S)N2CCc3ccccc3C2)c1,inconclusive: 26.3%,
Nc1nc(NS(=O)(=O)c2ccc(Cl)cc2)nn1-c1ccccc1,inconclusive: 3%,
Cc1[nH]nc(-c2ccc(OCc3cnn(-c4ccccc4)c3)cc2O)c1Oc1ccc(Cl)cc1,inconclusive: -4.12%,
O=C(CCC1CCCC1)Nc1ccon1,,"inconclusive: 11600 nM [activator, partial curve, poor fit]"
Cc1ccc(-c2cc(C(=O)NCc3cn(C)nc3C)c3cc(Br)ccc3n2)cc1,inconclusive: 16.4%,
N/C(=N\OC(=O)COc1ccccc1)c1ccccn1,inconclusive: 44.4%,
COc1ccc(-c2nc(Cc3ccc(Cl)cc3)no2)cc1OC,inconclusive: 196%,
CC(=O)c1c(C)[nH]c(C(=O)OCC(=O)NCc2ccc3c(c2)OCO3)c1C,,"inconclusive: 23100 nM [activator, single point]"
COc1ccccc1CC(=O)NCC(c1ccco1)N1CCCCC1 (configuration not stated),inconclusive: -22.1%,
CN(c1ccccc1)S(=O)(=O)c1cccc(NC(=O)Cc2n[nH]c(=O)c3ccccc23)c1,inconclusive: -31.5%,
CCOC(=O)c1ccc(N(CC(=O)NCC2CCCO2)C(=O)CCC(=O)Nc2cc(C)on2)cc1 (configuration not stated),inconclusive: 14.4%,
CC(C)OC(=O)CCCN1C(=O)c2ccc(N)cc2C1=O,inconclusive: 10.3%,
Cn1cnc(S(=O)(=O)N2CCN(C(c3ccc(F)cc3)c3ccc(F)cc3)CC2)c1,inconclusive: 11%,
COc1cccc(NC(=O)N2CCCC(C(=O)Nc3ccccc3OC)C2)c1 (configuration not stated),inconclusive: -20.1%,
c1nnc(-c2ccc3c(c2)OCO3)o1,inconclusive: 81%,
CC1CN(C(=O)COC(=O)c2ccc(N(C)C)cc2)CC(C)O1 (configuration not stated),inconclusive: 117%,
COc1cccc(OC)c1C(=O)NNC(=O)c1ccccc1-n1cccc1,,"inconclusive: 116 nM [falling, full curve, poor fit]"
CCOC(=O)N1CCC(Nc2c(NCCCN3CCN(c4ccc(OC)cc4)CC3)c(=O)c2=O)CC1,inconclusive: 5.37%,
CCN1C(=NCCc2ccccn2)N[C@@H](c2cccc(F)c2)C(C(=O)OC)=C1C,inconclusive: 20%,"inconclusive: 7.3 nM [activator, full curve, poor fit]"
CCC1CCCCN1S(=O)(=O)c1ccc(C(=O)N(CCCN(C)C)c2nc3cc4c(cc3s2)OCO4)cc1 (configuration not stated),inconclusive: -37%,
Cc1cc(C)c(S(=O)(=O)NCCSCc2ccco2)c(C)c1,inconclusive: 10.1%,
Cc1ccc(N2CC(C(=O)Oc3cccc(N4C(=O)CCC4=O)c3)CC2=O)cc1 (configuration not stated),inconclusive: -43.8%,
Cc1[nH][nH]c(=O)c1C(c1c(C)[nH][nH]c1=O)c1cn(Cc2ccc(Cl)c(Cl)c2)c2ccccc12,,"inconclusive: 18400 nM [falling, single point]"

Structure (SMILES),"lipid storage change, negative = inhibition",Potency
COc1cc(F)c(S(=O)(=O)N2CCOc3ccccc32)cc1OC,inconclusive: 0.194%,
COc1ccc(-c2noc(CNS(=O)(=O)c3ccc(NC(C)=O)cc3)n2)cc1OC,inconclusive: 52.8%,
CC(C)[C@H](NC(=O)[C@@H]1CSC2c3ccccc3C(=O)N21)C(=O)NCc1ccco1 (some centres not stated),,"inconclusive: 29100 nM [activator, single point]"
FC(F)(F)c1ccccc1NC(=S)Nc1cccc(Cl)c1,inconclusive: -45.9% [cytotoxic] [at 0.00295 µM],
CCc1ccc(OCC(=O)Nc2ccc3oc(=O)ccc3c2)cc1,inconclusive: 71.1%,
CCCCN(C(=O)c1ccc(C)o1)c1c(N)n(CCCC)c(=O)[nH]c1=O,inconclusive: 7.7%,
CCCCCCCN1C(Nc2ccccc2)=NC[C@@H]1CC(C)C,inconclusive: -44%,
COc1cc(/C=C2\NC(=S)N(C)C2=O)ccc1OCc1ccccc1F,inconclusive: -84.6%,
CC1CCCCN1C(=O)Cn1c(=O)n(CCC(=O)NCc2ccco2)c(=O)c2sccc21 (configuration not stated),inactive,
Cc1ccc(NC(=O)CS(=O)CC(=O)N(CC(=O)NC2CCCC2)c2cccc(C)c2C)cc1 (configuration not stated),inconclusive: 15.8%,
COc1cc(C(=O)N2CCN(c3ccccc3O)CC2)ccc1OCC(=O)N1CCOCC1,,"inconclusive: 5.2 nM [activator, full curve, poor fit]"
CCC(Oc1cc(Cl)ccc1Cl)C(=O)N1CCCN(C)CC1 (configuration not stated),inconclusive: -15.8%,
NS(=O)(=O)c1ccc(Nc2c([N+](=O)[O-])cncc2[N+](=O)[O-])cc1,,"inconclusive: 29100 nM [falling, single point]"
CCCCC[n+]1ccn(C2=C([O-])c3ccccc3C(=O)/C2=N\S(=O)(=O)c2ccccc2)c1,inconclusive: -22.4%,
CC1(C)CN(c2ccc(CC#N)cc2)C1=O,inconclusive: -25.2%,
CC(Sc1nnnn1C1CCCC1)C(=O)Nc1cccc(S(=O)(=O)N2CCOCC2)c1 (configuration not stated),inconclusive: -3.99%,
O=C1c2ccccc2C(=O)C1c1ccc(Cl)cc1,inactive,
COC(=O)C(C)Sc1nc2c(c(=O)n(C)c(=O)n2C)n1Cc1cccc(C)c1 (configuration not stated),inconclusive: -1.07%,
COc1ccc(S(=O)(=O)Oc2ccccc2C(=S)N2CCOCC2)cc1,,active: 1460 nM
CCN1CCC2(CCN(C(=O)c3cc(COc4cc(C)ccc4C)on3)C2)C1 (configuration not stated),,"inconclusive: 25900 nM [activator, partial curve]"
Nc1ccc(C(=O)c2cccs2)cc1[N+](=O)[O-],,"inconclusive: 4.6 nM [cytotoxic, full curve, poor fit]"
O=C(Nc1ccc(Cl)cc1)N1CCOCC1,,"inconclusive: 411 nM [falling, partial curve, poor fit]"
O=C(c1cccs1)N1CCN=C1SCc1cccnc1,inconclusive: 12.7%,
CC1CN=C(NC2CCCCC2C)S1 (configuration not stated),,"inconclusive: 4110 nM [falling, full curve, poor fit]"
COc1ccc(-c2cn3cccnc3n2)cc1NC(=O)C1CCCC1,,"inconclusive: 820 nM [rising, partial curve]"
COc1ccc(C(CNC(=O)c2cc3ccccc3cc2OC)N2CCCC2)cc1 (configuration not stated),,"inconclusive: 29100 nM [activator, single point]"

Structure (SMILES),"lipid storage change, negative = inhibition",Potency
COC(=O)C1CC(O)CN1S(=O)(=O)c1ccc2ccccc2c1 (configuration not stated),,"inconclusive: 130 nM [activator, full curve, poor fit]"
C/C(=N\NC(=O)Cn1cc([N+](=O)[O-])cn1)c1ccco1,inconclusive: 7.15%,
Cc1ccc(NC(=O)C2CCN(C(=O)c3ccccc3C)CC2)nc1,inconclusive: 42%,
C=CCc1ccccc1OCC(O)Cn1ccnc1C (configuration not stated),inconclusive: -23.2%,
O=C(Nc1ccc(Cl)cc1)c1cccc(S(=O)(=O)Nc2ccccn2)c1,inconclusive: 13.5%,
CCOc1cc(NC(=O)C2CCCCC2)c(OCC)cc1NC(=O)c1ccco1,,"inconclusive: 1030 nM [falling, full curve, poor fit]"
COc1ccc(OC)c(NC(=S)NCCCN2CCOCC2)c1,inconclusive: 207%,
CN=C1SC(CC(=O)Nc2sc(C)c(C)c2C(=O)OC)C(=O)N1C (configuration not stated),inconclusive: 17.1%,
O=C(Nc1ccc(NC(=S)NC(=O)c2cccs2)cc1)c1ccccc1,,"inconclusive: 5800 nM [activator, partial curve, poor fit]"
Cc1ccc(Nc2nc(N)nc(CN3CCCCCC3)n2)cc1,inconclusive: 43.2%,
CCOc1ccccc1C1CC(c2cccc(NS(C)(=O)=O)c2)=NN1C(=O)c1ccccc1 (configuration not stated),inconclusive: 27.4%,
Cn1c(CCNC(=O)c2ccco2)nc2cc(NS(=O)(=O)c3ccccc3)ccc21,inconclusive: 105%,
O=C(c1ccccc1)N1CCN(C(=O)C23CC4CC(CC(C4)C2)C3)CC1,,"inconclusive: 231 nM [falling, full curve, poor fit]"
O=C(CCNS(=O)(=O)c1cccc(Cl)c1)OCC(=O)N1CCN(C(=O)c2ccco2)CC1,inconclusive: 3.38%,
CS(=O)(=O)c1ccc2nc(NC(=O)CCNC(=O)c3ccc([N+](=O)[O-])cc3)sc2c1,inconclusive,
O=C1c2ccccc2NC(c2cccc(Cl)c2)N1N=C1CCCCCC1 (configuration not stated),inconclusive: -14.2%,
C=CCOC(=O)CN1C(=O)c2ccccc2C1=O,inconclusive: 25.3%,
OC(COCC(F)(F)C(F)(F)C(F)(F)C(F)F)Cn1c2ccc(Cl)cc2c2cc(Cl)ccc21 (configuration not stated),inconclusive: -5.98%,
Clc1ccc(NC2(c3nnnn3C3CCCCC3)CCCCC2)cc1,inconclusive: 10.1%,
CC1=Nn2c(nnc2-c2ccco2)SC1,inconclusive: 22.3%,
CC(C)c1c(C(=O)N/N=C/c2ccc(OCc3ccccc3)cc2)nnn1-c1nonc1N,,"inconclusive: 130 nM [rising, full curve, poor fit]"
CCOC(=O)c1c(NC(=O)C[n+]2ccc(N(C)C)cc2)sc(C)c1C,inconclusive: 4.26%,
Cc1cc(C)n2ncc(/C(N)=N/OC(=O)Nc3ccc(Cl)cc3)c2n1,inconclusive: -46.6%,
Cc1ccc2c(C)ccc(O)c2n1,,"inconclusive: 11600 nM [falling, partial curve, poor fit]"

# In another format: entries from further up
Structure (SMILES) | lipid storage change, negative = inhibition | Potency
Cc1ccc(-c2cc(C(=O)NCc3cn(C)nc3C)c3cc(Br)ccc3n2)cc1 | inconclusive: 16.4% | 
CCCCN(C(=O)c1ccc(C)o1)c1c(N)n(CCCC)c(=O)[nH]c1=O | inconclusive: 7.7% | 
